Laboratory results reported in PubChem BioAssay AID2551 (National Center for Advancing Translational Sciences (NCATS), 2010).
The campaign covered roughly 310,000 compounds. About 17,000 (5.5%) were called active. Inconclusive means that the source gave no clear call. Such entries were picked first, then a sample of the others. The call rests on the fitted dose curve; in most records, active means well fitted inhibition curve with a large enough effect; inconclusive means small, poorly fitted or top-dose-only effect, or effect the other way; inactive means no such curve, though single readings can be large or run the other way. Where the call is inconclusive, the potency comes from a doubtful curve fit.

Amino acid sequences for entries named in this document (tags omitted). A change or cut given only in a name is not applied to a line headed by its entry.
UniProt P51450: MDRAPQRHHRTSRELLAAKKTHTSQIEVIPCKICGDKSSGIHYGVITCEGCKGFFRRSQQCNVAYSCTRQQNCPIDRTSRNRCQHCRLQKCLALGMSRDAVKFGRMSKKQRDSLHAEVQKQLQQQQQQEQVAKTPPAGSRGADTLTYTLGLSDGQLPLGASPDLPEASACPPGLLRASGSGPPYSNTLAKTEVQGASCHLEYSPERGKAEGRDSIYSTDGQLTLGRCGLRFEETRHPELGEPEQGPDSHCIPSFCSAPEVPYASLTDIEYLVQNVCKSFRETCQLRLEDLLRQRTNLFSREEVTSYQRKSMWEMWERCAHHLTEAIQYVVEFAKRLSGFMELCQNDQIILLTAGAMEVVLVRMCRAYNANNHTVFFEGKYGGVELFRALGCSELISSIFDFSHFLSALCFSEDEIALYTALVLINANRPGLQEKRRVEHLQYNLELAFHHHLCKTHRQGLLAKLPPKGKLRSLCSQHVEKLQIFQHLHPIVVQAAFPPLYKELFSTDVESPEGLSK

What follows are compounds tested against Nuclear receptor ROR-gamma (Mus musculus) (UniProt P51450) (assay: qHTS for inhibitors of ROR gamma transcriptional activity). Conditions: Drosophila S2 Gal4-RORgamma UAS-luciferase reporter, 20 h; activity change, negative = inhibition: at 53.6 µM (top of the series).
Outline: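 Drosophila Schneider cells stably carrying a metallothionein-driven Gal4 DBD–ROR gamma fusion and a UAS-Photinus luciferase reporter were exposed to compound for 1 hr, then induced with copper sulfate (700 uM final) for 20 hr at ambient temperature before luminescence reading.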
Further: nearly all actives have a fitted effect of over 60% in size.
On the % scale 0 is the no-effect control and ±100 the full control effect; potency means the concentration at half of the fitted maximal effect.

SMILES	Potency	activity change, negative = inhibition
OCCn1c(-c2ccccc2)csc1=Nc1ccccc1	inconclusive: 12.6 µM [activator, partial curve]	
Cc1ccc(C(=O)COC(=O)c2ccccc2NC(=O)c2ccccc2)cc1[N+](=O)[O-]	inactive	
COc1ccccc1C(=O)Nc1ccnn1C1CCN(CC2CC=CCC2)CC1 (stereo not drawn)	inactive	
COc1cc(C(=O)N/N=C(\C)Cn2nc([N+](=O)[O-])cc2C)ccc1O	inconclusive: 28.2 µM [inhibitor, single point]	
Cc1cccc(/C=N/NC(=O)c2cc(Br)ccc2OCc2ccccc2)n1	inconclusive: 25.1 µM [inhibitor, single point]	
O=C(N/N=C/c1ccc([N+](=O)[O-])o1)c1ccc2c(c1)OCO2	active: 4.47 µM	
CCOc1cc(/C=N/Nc2nc(=O)[nH]nc2C)ccc1O	active: 8.91 µM	
Cc1nc(N2CCCCC2)c2c(C)c(C(=O)Nc3ccccc3C(F)(F)F)sc2n1	inconclusive: 25.1 µM [inhibitor, single point]	
Cn1c(NCc2cc(Br)ccc2O)nc2ccccc21	inconclusive: 15.8 µM [inhibitor, single point]	
COc1cc(F)ccc1S(=O)(=O)n1c(C)nc2ccccc21		inactive: -17.7% [at 1.91 µM]
O=C(CCN1CCN(c2ccc(Cl)cc2)CC1)Nc1nccs1	inactive	
COc1ccc(CCN2CC(C(=O)NCCN3CCCC3=O)CCC2=O)cc1 (stereo not drawn)	inactive	
Cc1cc2ncn(C(=O)c3c(-c4ccccc4Cl)noc3C)c2cc1C	inconclusive: 10 µM [inhibitor, partial curve]	
CCN1C(C)=C(C(=O)OC(C)C)C(c2ccccc2Cl)C(C(=O)O)=C1C(=O)O (stereo not drawn)	inconclusive: 35.5 µM [inhibitor, single point]	
COc1ccccc1C(=O)Nn1c(C)nc2ccccc2c1=O	inactive	
Cc1oc(-c2cc(F)ccc2F)nc1CN1CCN(c2ncnc3ccccc23)CC1	inconclusive: 14.1 µM [inhibitor, single point]	
CCOc1ccc2nc(NC(=O)CC3Oc4ccccc4NC3=O)sc2c1 (stereo not drawn)	inactive	
COc1ccc(CNC(=O)/C(C)=C\C(=O)O)cc1	active: 5.62 µM	
O=C(COC(=O)c1ccc(Cl)cc1O)NCCN1C(=O)CSC1=O	inconclusive: 22.4 µM [activator, single point]	
Cc1ccccc1C(=O)Nc1ccc2c(c1)OCO2	inconclusive: 11.2 µM [inhibitor, partial curve]	
CCN(CC)S(=O)(=O)c1cccc(C(=O)N/N=C/c2ccc(O)c(O)c2O)c1	inactive	
O=C(CN1C(=O)CC(c2ccccc2)=Nc2ccccc21)NCc1ccccc1	inconclusive: 7.94 µM [activator, partial curve]	
Cc1cccc(NC(=S)NN2CCOCC2)c1C	active: 11.2 µM	
COc1ccc(C2NC(=O)NC(C)=C2C(=O)OC2CCC(C)CC2)cc1 (stereo not drawn)	inconclusive: 22.4 µM [activator, single point]	

Of the compounds above, 6 have four or more nitrogen atoms:
SMILES	Potency	activity change, negative = inhibition
COc1ccccc1C(=O)Nc1ccnn1C1CCN(CC2CC=CCC2)CC1 (stereo not drawn)	inactive	
COc1cc(C(=O)N/N=C(\C)Cn2nc([N+](=O)[O-])cc2C)ccc1O	inconclusive: 28.2 µM [inhibitor, single point]	
CCOc1cc(/C=N/Nc2nc(=O)[nH]nc2C)ccc1O	active: 8.91 µM	
Cc1nc(N2CCCCC2)c2c(C)c(C(=O)Nc3ccccc3C(F)(F)F)sc2n1	inconclusive: 25.1 µM [inhibitor, single point]	
O=C(CCN1CCN(c2ccc(Cl)cc2)CC1)Nc1nccs1	inactive	
Cc1oc(-c2cc(F)ccc2F)nc1CN1CCN(c2ncnc3ccccc23)CC1	inconclusive: 14.1 µM [inhibitor, single point]	

3 structures already listed, arranged by molar mass, rising:
SMILES	Potency	activity change, negative = inhibition
COc1cc(C(=O)N/N=C(\C)Cn2nc([N+](=O)[O-])cc2C)ccc1O	inconclusive: 28.2 µM [inhibitor, single point]	
CCN1C(C)=C(C(=O)OC(C)C)C(c2ccccc2Cl)C(C(=O)O)=C1C(=O)O (stereo not drawn)	inconclusive: 35.5 µM [inhibitor, single point]	
Cc1cccc(/C=N/NC(=O)c2cc(Br)ccc2OCc2ccccc2)n1	inconclusive: 25.1 µM [inhibitor, single point]	

Next part:

SMILES	Potency	activity change, negative = inhibition
O=C(CCC(=O)NC1CCCCC1)NCc1ccc(F)cc1	inconclusive: 22.4 µM [inhibitor, single point]	
CC1Sc2ccc(S(=O)(=O)NCCc3ccc(S(N)(=O)=O)cc3)cc2NC1=O (stereo not drawn)	inactive	
CC(C)(C)c1ccccc1NC(=O)NC1CCN(Cc2c(F)cccc2Cl)CC1	inactive	
Cc1ccc2cc(CN(Cc3ccco3)C(=O)NC3CCCCC3)c(=O)[nH]c2c1C	inconclusive: 10 µM [activator, partial curve]	
COCCNC(=O)C(=O)NCC1OCCCN1S(=O)(=O)c1cccs1 (stereo not drawn)	inactive	
CCOc1cccc(C(=O)Nc2ccc(N3CCN(S(C)(=O)=O)CC3)cc2)c1	inactive	
CN(C(=O)COC(=O)c1nc(Cl)ccc1Cl)c1ccccc1	inactive	
CC(C)(C)c1ccc(/C=C2\CCn3c2nc2cc(C(=O)O)ccc2c3=O)cc1	inconclusive: 6.31 µM [activator, partial curve]	
O=c1c2ccc(Cl)cc2[nH]c(=S)n1CCCN1CCOCC1	active: 7.94 µM	
O=C(NCc1nc2ccccc2[nH]1)C1=C[C@H](c2ccc3c(c2)OCO3)C[C@H](OCc2ccc(CO)cc2)O1	inconclusive: 35.5 µM [inhibitor, single point]	
CCCc1cc(=O)[nH]c(Nc2ccc(O)cc2)n1	inactive	
COc1cccc(Cn2cccc(NC(=O)Nc3ccc(C#N)cc3)c2=O)c1	inconclusive: 35.5 µM [activator, single point]	
O=C(C1=C[C@H](c2ccc3c(c2)OCO3)C[C@H](OCCCCO)O1)N1CCN(Cc2ccccc2)CC1	inconclusive: 25.1 µM [inhibitor, single point]	
CS(=O)c1ccc(-c2nc(-c3ccc(F)cc3)c(-c3ccncc3)[nH]2)cc1 (stereo not drawn)	inactive	
C/C(=C\c1ccc(Br)cc1)C(=O)c1c(C)cc(C)[nH]c1=O	inconclusive: 5.01 µM [inhibitor, full curve]	
CCOC(=O)c1c(NC(=O)CN(CC)CC)sc2c1CCN(C(=O)OCC)C2	inconclusive: 11.2 µM [inhibitor, single point]	
CN(C)c1ccc(CC2C(=O)Nc3ccccc32)cc1 (stereo not drawn)	inactive	
CCS(=O)(=O)c1ccc(O)c(NC(=O)COc2ccc(Cl)cc2)c1	inconclusive: 12.6 µM [activator, single point]	
N#CC1=C(N)NC(SCC(=O)c2ccc(Cl)cc2)=C(C#N)C12CCCC2	inconclusive: 35.5 µM [inhibitor, single point]	
CCOC(=O)C1CCN(C(=S)Nc2ccc(S(N)(=O)=O)cc2)CC1	inactive	
Cn1c(-c2sc3cc(C(F)(F)F)cnc3c2-c2ccccc2)n[nH]c1=S	active: 2.82 µM	
O=[N+]([O-])c1cc(C(F)(F)F)ccc1NCCNC(=S)Nc1ccc(Cl)cc1	inconclusive: 35.5 µM [inhibitor, single point]	
O=C(N/N=C/c1ccc(-c2ccccc2[N+](=O)[O-])o1)c1cncc(Br)c1	active: 6.31 µM	
Cc1ccc(NC(=O)c2cc(Cl)nc3ccccc23)cc1	inactive	
